Experimental data taken from patent US20060165706A1.
No constants are given. Whether binding was seen depends on the method and setting. Some entries that bind do so weakly or less than the wild type.

The chains behind the UniProt entries cited, without tags or fusion partners. Where a name states a change or a piece, a line headed by the entry shows the natural chain unless it says otherwise.
UniProt P16410: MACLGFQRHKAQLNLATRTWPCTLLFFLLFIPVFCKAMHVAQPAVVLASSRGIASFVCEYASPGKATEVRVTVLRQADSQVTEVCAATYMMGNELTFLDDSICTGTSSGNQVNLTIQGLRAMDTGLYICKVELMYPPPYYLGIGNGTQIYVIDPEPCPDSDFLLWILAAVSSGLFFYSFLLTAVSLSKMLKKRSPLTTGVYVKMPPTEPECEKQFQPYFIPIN

What was measured:
[1] = target: CTLA4 on CTLA4-expressing CHO cells (human) (UniProt P16410); assay: FACS, direct staining of CHO.CTLA4 cells with 125 ng FITC-labeled murine CTLA4-26B (key in FIG. 6D)
human CTLA4-Ig (human) [2] = target: human CTLA4-Ig (human) (UniProt P16410); assay: competition ELISA on plate-coated human CTLA4-Ig (10 ug/ml); cold competitor titrated against biotinylated murine CTLA4-26B; streptavidin-peroxidase, ABTS, O.D. 415 nm
human CTLA4-Ig (human) [3] = target: human CTLA4-Ig (human) (UniProt P16410); assay: ELISA on coated human CTLA4-Ig (figure legend)
human CTLA4-Ig (human) [4] = target: human CTLA4-Ig (human) (UniProt P16410); assay: ELISA on coated human CTLA4-Ig (10 ug/ml), AP anti-mouse detection
[5] = target: CTLA4 on CTLA4-expressing CHO cells (human) (UniProt P16410); assay: FACS competition on CHO.CTLA4 cells: 125 ng FITC-CTLA4-26B with unlabeled competitor (key in FIG. 6D)
human CTLA4-Ig (human) [6] = target: human CTLA4-Ig (human) (UniProt P16410); assay: inhibition ELISA on plate-coated human CTLA4-Ig (10 ug/ml); antibody titrated, then biotin-CD86-Ig at 0.66 ug/ml as the blocked ligand; neutravidin-AP, ABTS
human CTLA4-Ig (human) [7] = target: human CTLA4-Ig (human) (UniProt P16410); assay: ELISA competition assay on human CTLA4-Ig (figure legend)
human CTLA4-Ig (human) [8] = target: human CTLA4-Ig (human) (UniProt P16410); assay: inhibition ELISA on plate-coated human CTLA4-Ig (10 ug/ml); antibody titrated, then biotin-CD80-Ig at 0.66 ug/ml as the blocked ligand; neutravidin-AP, ABTS
human CTLA4-Ig (human) [9] = target: human CTLA4-Ig (human) (UniProt P16410); assay: ELISA on plate-coated human CTLA4-Ig (10 ug/ml); serial dilutions of antibody, AP-goat anti-mouse, ABTS, OD 405 nm

Measured: binding

B1: murine anti-human CTLA4 monoclonal antibody number 26 (antibody, V domains shown)
VH: QVQLKESGPGLVAPSQSLSITCTVSGFSLTSYGVYWVRQPPGKGLEWLGVIWAGGTTNYNSALMSRLSISKDNSKSQVFLKMSSLQTDDTAMYYCARGPPHAMMKRGYAMDYWGQGTSVIVSS
VL: QNVLTQSPAIMPASPGEKVTMTCSATSSITYMSWYQQKSGSSPRLLIYDTSNLASGVPVRFSGSGSGTSYSLTISRMEAEDAATYYCQQWSSYPLTFGAGTKLELK
binds: all assays above

B2: humanized anti-CTLA4 antibody 26, IgG1 isotype (antibody, V domains shown)
VH: QVQLQESGPGLVKPSQTLSLTCTVSGFSLTSYGVYWVRQPPGKGLEWLGVIWAGGTTNYNSALMSRLTISKDTSKNQVSLKLSSVTAADTAVYYCARGPPHAMMKRGYAMDYWGQGTLVTVSS
VL: DIQMTQSPSSLSASVGDRVTITCSATSSITYMSWYQQKPGKAPKLLIYDTSNLASGVPSRFSGSGSGTDYTLTISSLQPEDFATYYCQQWSSYPLTFGGGTKVEIK
binds: [5]
